The record followed here is the supplement of paper PMC4604168 (melanoma cell lines).

Experiment in all cases: cleaved PARP positive nuclei fraction relative to DMSO control; melanoma cells; higher = more apoptosis
Holding throughout (conditions): library dose: low library concentration; 72 h

Assay [1] concerns 501Mel.
The subject of assay [2] is A101D.
Assay [3] concerns A2058.
The subject of assay [4] is C32.
The test system of assay [5] is CBRC008 (line from a melanoma biopsy).
Assay [6] relates to CBRC014 (line from a melanoma biopsy).
Assay [7] deals with CBRC016 (line from a melanoma biopsy).
Assay [8] concerns CBRC017 (line from a melanoma biopsy).

This is one part of the list. Many values rest on one well or one pass, so single values are uncertain.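 The apoptosis fraction was the count of cleaved-PARP antibody-stained nuclei relative to all DNA-stained nuclei, imaged in 1,536-well plates. Screening doses were set so most cells survived, and baseline and induced cleaved-PARP levels vary greatly across cell lines.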

On to `COc1ccc(C2=N[C@@H](c3ccc(Cl)cc3)[C@@H](c3ccc(Cl)cc3)N2C(=O)N2CCNC(=O)C2)c(OC(C)C)c1` [Nutlin-3] + C/C(O)=C(\C#N)C(=O)Nc1cc(Br)ccc1Br [LFM-A13] (first compound 0.1 µM, partner dose 2 µM), for which the “cleaved PARP positive nuclei fraction” value in assay [1] stood at 69.5%; in assay [2] it was 18.1%; in assay [3] it was 88.3%; in assay [4] it was 20.7%; in assay [5], 167%; in assay [6], 101%. Also, the “cleaved PARP positive nuclei fraction” value turned out to be 64.6% in assay [7] and 92.1% in assay [8].

In the case of `C=CCNC1=C2C[C@@H](C)C[C@H](OC)[C@H](O)[C@@H](C)/C=C(\C)[C@H](OC(N)=O)[C@@H](OC)/C=C\C=C(/C)C(=O)NC(=CC1=O)C2=O` [Tanespimycin] + C/C(O)=C(\C#N)C(=O)Nc1cc(Br)ccc1Br [LFM-A13] (first compound 0.002 µM, partner dose 2 µM), the “cleaved PARP positive nuclei fraction” value in assay [1] was 60.5%; in assay [2] it was 30.6%; in assay [3], 54.8%; in assay [4], 120%; in assay [5], 100%; in assay [6] it was 90.3%. The “cleaved PARP positive nuclei fraction” value in assay [7] is 69.5%; in assay [8], 79.8%.

In the case of `N#CC[C@H](C1CCCC1)n1cc(-c2ncnc3[nH]ccc23)cn1` [ruxolitinib] + C/C(O)=C(\C#N)C(=O)Nc1cc(Br)ccc1Br [LFM-A13] (first compound 1 µM, partner dose 2 µM), the “cleaved PARP positive nuclei fraction” value in assay [1] was 30%; in assay [2], 22.1%; in assay [3], 95.7%; in assay [4] it was 131%; in assay [5], 110%; in assay [6], 92.4%. The “cleaved PARP positive nuclei fraction” value in assay [7] came to 134%; in assay [8] it was 85.8%.

Regarding `N#CC[C@H](C1CCCC1)n1cc(-c2ncnc3[nH]ccc23)cn1` [ruxolitinib] + O=C(Oc1ccc([N+](=O)[O-])cc1)N1CCC(C(O)(c2ccc3c(c2)OCO3)c2ccc3c(c2)OCO3)CC1 [JZL184] (first compound 1 µM, partner dose 1 µM), the “cleaved PARP positive nuclei fraction” value in assay [1] was 72.6%; in assay [2], 16.3%; in assay [3] it was 65%; in assay [4], 18.2%; in assay [5], 159%; in assay [6], 85.7%. In addition, the “cleaved PARP positive nuclei fraction” value was 160% in assay [7] and 176% in assay [8].

Consider `CS(=O)(=O)CCNCc1ccc(-c2ccc3ncnc(Nc4ccc(OCc5cccc(F)c5)c(Cl)c4)c3c2)o1` [lapatinib] + Cc1cc(SCc2sc(-c3ccc(C(F)(F)F)c(F)c3)nc2C)ccc1OCC(=O)O [GW0742] (first compound 0.8 µM, partner dose 2 µM), for which the “cleaved PARP positive nuclei fraction” value in assay [1] was 71%; in assay [2] it was 31.4%; in assay [3] it was 22.5%; in assay [4], 147%; in assay [5], 310%; in assay [6], 110%. Also, the “cleaved PARP positive nuclei fraction” value in assay [7] was 104%; in assay [8] it was 120%.

With `Cn1cc(C2=C(c3cn(C4CCN(Cc5ccccn5)CC4)c4ccccc34)C(=O)NC2=O)c2ccccc21` [Enzastaurin] + c1cc(-c2cnn3cc(-c4ccc(OCCN5CCCCC5)cc4)cnc23)ccn1 [Dorsomorphin] (first compound 0.8 µM, partner dose 0.4 µM), the “cleaved PARP positive nuclei fraction” value in assay [1] amounted to 129%; in assay [2], 10.3%; in assay [3], 109%; in assay [4], 60.1%; in assay [5], 154%; in assay [6], 114%. Besides, the “cleaved PARP positive nuclei fraction” value in assay [7] came out at 39.9%; in assay [8] it was 85.4%.

In the case of `N.N.[Cl][Pt][Cl]` [cisplatin] + O=C1NC(=O)/C(=C/c2ccc(-c3ccc(F)cc3O)o2)S1 [AS252424] (first compound 1.6 µM, partner dose 1 µM), the “cleaved PARP positive nuclei fraction” value in assay [1] came to 410%; in assay [2], 35%; in assay [3] it was 38.7%; in assay [4] it was 72%; in assay [5], 614%; in assay [6], 94.7%. In addition, the “cleaved PARP positive nuclei fraction” value in assay [7] is 52.8%; in assay [8], 227%.

Consider `Cc1cc(Nc2cc(N3CCN(C)CC3)nc(Sc3ccc(NC(=O)C4CC4)cc3)n2)n[nH]1` [Tozasertib] + C/C(O)=C(\C#N)C(=O)Nc1cc(Br)ccc1Br [LFM-A13] (first compound 0.006 µM, partner dose 2 µM), for which the “cleaved PARP positive nuclei fraction” value in assay [1] was found to be 60.1%; in assay [2], 13.1%; in assay [3], 48.4%; in assay [4], 21.1%; in assay [5], 201%; in assay [6], 103%. Besides, the “cleaved PARP positive nuclei fraction” value amounted to 116% in assay [7] and 85.8% in assay [8].

Consider `Cn1cc(C2=C(c3cn(C4CCN(Cc5ccccn5)CC4)c4ccccc34)C(=O)NC2=O)c2ccccc21` [Enzastaurin] + Oc1nc(-c2ccc(C(F)(F)F)cc2)nc2c1CSCC2 [XAV939] (first compound 0.8 µM, partner dose 2 µM), for which the “cleaved PARP positive nuclei fraction” value in assay [1] was 110%; in assay [2] it was 5.39%; in assay [3] it was 44.2%; in assay [4], 76.7%; in assay [5], 79.6%; in assay [6], 101%. Further, the figures for the “cleaved PARP positive nuclei fraction” value in assay [7] and in assay [8] were 37.7% and 93.5%, respectively.

As for `N.N.[Cl][Pt][Cl]` [cisplatin] + O=C(O)C(=O)Nc1sc2c(c1C(=O)O)CCNC2 [TCS401] (first compound 1.6 µM, partner dose 1.66667 µM), the “cleaved PARP positive nuclei fraction” value in assay [1] is 30.8%; in assay [2], 30.2%; in assay [3] it was 81.3%; in assay [4], 83.6%; in assay [5], 159%; in assay [6], 110%. Besides, the “cleaved PARP positive nuclei fraction” value in assay [7] was determined as 89.3%; in assay [8], 110%.

Take `Cc1cc(Nc2cc(N3CCN(C)CC3)nc(/C=C/c3ccccc3)n2)n[nH]1` + C/C(O)=C(\C#N)C(=O)Nc1cc(Br)ccc1Br [LFM-A13] (first compound 0.04 µM, partner dose 2 µM): the “cleaved PARP positive nuclei fraction” value in assay [1] was determined as 114%; in assay [2], 42.4%; in assay [3], 147%; in assay [4], 96.5%; in assay [5] it was 279%; in assay [6] it was 111%. The “cleaved PARP positive nuclei fraction” value was 49.7% in assay [7] and 93.7% in assay [8].

For `Cc1ccc(Nc2nccc(N(C)c3ccc4c(C)n(C)nc4c3)n2)cc1S(N)(=O)=O` [Pazopanib] + C/C(O)=C(\C#N)C(=O)Nc1cc(Br)ccc1Br [LFM-A13] (first compound 0.4 µM, partner dose 2 µM), the “cleaved PARP positive nuclei fraction” value in assay [1] was 60.1%; in assay [2], 39.1%; in assay [3] it was 40.6%; in assay [4], 112%; in assay [5], 22.2%; in assay [6], 49.4%. Also, the “cleaved PARP positive nuclei fraction” value in assay [7] is 38.5%; in assay [8], 80.8%.
